Assay results published in patent US20250163138A1 (Alexion, published 2025).
Results are given in words; binding and its absence hold for the method and conditions named. Some results given as binding are weak or reduced against the parent protein; the word gives no strength.

Sequences of proteins named here, by UniProt entry; tags and fusion partners are left off. Residues count along the entry.
UniProt P01031, residues 19-1676: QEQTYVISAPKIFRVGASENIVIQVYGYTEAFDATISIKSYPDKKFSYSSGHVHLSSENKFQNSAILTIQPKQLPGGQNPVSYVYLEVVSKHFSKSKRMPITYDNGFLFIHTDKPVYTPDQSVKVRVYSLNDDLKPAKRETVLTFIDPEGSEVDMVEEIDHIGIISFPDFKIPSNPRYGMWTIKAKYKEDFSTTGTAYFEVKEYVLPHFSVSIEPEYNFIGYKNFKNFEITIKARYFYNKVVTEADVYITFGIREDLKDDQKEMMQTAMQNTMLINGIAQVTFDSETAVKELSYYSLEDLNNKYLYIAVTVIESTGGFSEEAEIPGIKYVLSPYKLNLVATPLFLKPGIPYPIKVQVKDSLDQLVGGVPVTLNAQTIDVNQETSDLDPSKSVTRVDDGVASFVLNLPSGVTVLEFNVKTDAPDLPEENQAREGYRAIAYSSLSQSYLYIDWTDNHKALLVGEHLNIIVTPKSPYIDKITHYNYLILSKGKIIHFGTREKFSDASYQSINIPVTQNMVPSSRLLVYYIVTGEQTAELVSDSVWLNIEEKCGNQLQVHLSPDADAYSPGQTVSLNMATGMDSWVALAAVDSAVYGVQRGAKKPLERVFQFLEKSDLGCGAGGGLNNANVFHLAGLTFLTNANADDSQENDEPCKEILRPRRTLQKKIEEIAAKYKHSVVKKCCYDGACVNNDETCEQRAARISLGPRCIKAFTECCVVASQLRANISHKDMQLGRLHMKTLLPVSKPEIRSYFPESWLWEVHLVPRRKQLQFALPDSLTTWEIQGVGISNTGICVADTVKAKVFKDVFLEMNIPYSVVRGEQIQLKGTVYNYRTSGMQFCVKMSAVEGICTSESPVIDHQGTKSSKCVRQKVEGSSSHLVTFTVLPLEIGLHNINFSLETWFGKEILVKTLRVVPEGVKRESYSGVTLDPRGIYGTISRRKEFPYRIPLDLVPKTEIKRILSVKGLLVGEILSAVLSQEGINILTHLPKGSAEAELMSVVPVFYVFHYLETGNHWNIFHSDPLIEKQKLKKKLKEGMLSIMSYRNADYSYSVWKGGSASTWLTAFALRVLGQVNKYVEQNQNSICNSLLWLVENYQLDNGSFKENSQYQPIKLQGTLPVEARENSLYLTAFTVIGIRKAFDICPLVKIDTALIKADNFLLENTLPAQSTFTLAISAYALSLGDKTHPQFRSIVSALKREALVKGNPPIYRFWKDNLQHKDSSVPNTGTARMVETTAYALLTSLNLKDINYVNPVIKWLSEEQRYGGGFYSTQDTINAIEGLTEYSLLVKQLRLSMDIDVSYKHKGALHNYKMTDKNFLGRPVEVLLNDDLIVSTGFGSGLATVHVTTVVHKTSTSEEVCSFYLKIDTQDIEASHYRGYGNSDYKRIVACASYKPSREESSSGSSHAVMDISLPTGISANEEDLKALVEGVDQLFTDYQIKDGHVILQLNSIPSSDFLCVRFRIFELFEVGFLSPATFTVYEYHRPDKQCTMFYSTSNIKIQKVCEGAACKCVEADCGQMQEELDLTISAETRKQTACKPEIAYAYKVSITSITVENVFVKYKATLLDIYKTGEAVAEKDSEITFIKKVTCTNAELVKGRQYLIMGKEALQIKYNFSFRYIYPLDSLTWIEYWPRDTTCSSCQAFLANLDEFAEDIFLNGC
UniProt P02768, residues 25-609: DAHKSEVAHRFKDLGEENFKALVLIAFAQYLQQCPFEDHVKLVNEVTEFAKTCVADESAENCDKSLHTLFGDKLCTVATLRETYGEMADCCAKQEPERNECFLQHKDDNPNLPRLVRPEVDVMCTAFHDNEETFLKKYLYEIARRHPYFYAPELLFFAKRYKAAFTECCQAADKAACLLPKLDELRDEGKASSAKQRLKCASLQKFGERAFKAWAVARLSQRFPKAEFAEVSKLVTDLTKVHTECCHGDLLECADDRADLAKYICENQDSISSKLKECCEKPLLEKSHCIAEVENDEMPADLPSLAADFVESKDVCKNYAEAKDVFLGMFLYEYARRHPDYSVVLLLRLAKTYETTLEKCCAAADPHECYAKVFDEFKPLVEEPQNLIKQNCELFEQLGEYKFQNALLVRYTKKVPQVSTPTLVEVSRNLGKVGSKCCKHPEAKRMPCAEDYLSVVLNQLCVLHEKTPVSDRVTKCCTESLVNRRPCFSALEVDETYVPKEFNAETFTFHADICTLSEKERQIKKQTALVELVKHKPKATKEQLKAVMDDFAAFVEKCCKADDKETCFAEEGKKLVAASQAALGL

Legend:
[1] = target: T1, human complement protein C5 (human, UniProt P01031 19-1676); assay: SPR (Biacore 3000), biotin-hC5 on CAP chip, pH 7.4
T1 construct: Native C5 is a two-chain protein made from one precursor; also called hC5; human C5

human serum albumin [2] = target: T2, human serum albumin (human, UniProt P02768 25-609); assay: SPR (Biacore 3000), biotin-hC5 on CAP chip, pH 7.4
T2 construct: also called HSA; human albumin

[3] = target: T1, human complement protein C5; assay: sandwich: biotin-hC5 on CAP chip, fusion, then albumin; pH 7.4
human serum albumin [4] = target: T2, human serum albumin; assay: as above
[5] = target: T1, human complement protein C5; assay: BLI, VHH-His on anti-penta-His tips, 50 nM C5
[6] = target: cynomolgus monkey (cyno) complement protein C5 (cynomolgus monkey); assay: BLI, VHH-His on anti-penta-His tips, 50 nM C5

Measured: binding

B1: TPP-3214 (bispecific antibody)
chain: EVQLVESGGGLVKPGGSLRLSCAASGRPVSNYAAAWFRQAPGKEREFVSAINWQKTATYADSVKGRFTISRDNAKNSLYLQMNSLRAEDTAVYYCAAVFRVVAPKTQYDYDYWGQGTLVTVSSGGGGSEVQLVESGGGLVQPGGSLRLSCAASGRAHSDYAMAWFRQAPGQEREFVAGIGWSGGDTLYADSVRGRFTNSRDNSKNTLYLQMNSLRAEDTAVYYCAARQGQYIYSSMRSDSYDYWGQGTLVTVSS
binds: [1] | human serum albumin [2] | [3] | human serum albumin [4]

B2: TPP-3216 (bispecific antibody)
chain: EVQLVESGGGLVKPGGSLRLSCAASGRPVSNYAAAWFRQAPGKEREFVSAINWQKTATYADSVKGRFTISRDNAKNSLYLQMNSLRAEDTAVYYCAAVFRVVAPKTQYDYDYWGQGTLVTVSSPAPAPEVQLVESGGGLVQPGGSLRLSCAASGRAHSDYAMAWFRQAPGQEREFVAGIGWSGGDTLYADSVRGRFTNSRDNSKNTLYLQMNSLRAEDTAVYYCAARQGQYIYSSMRSDSYDYWGQGTLVTVSS
binds: [1] | human serum albumin [2] | [3] | human serum albumin [4]

B3: TPP-3217 (bispecific antibody)
chain: EVQLVESGGGLVKPGGSLRLSCAASGRPVSNYAAAWFRQAPGKEREFVSAINWQKTATYADSVKGRFTISRDNAKNSLYLQMNSLRAEDTAVYYCAAVFRVVAPKTQYDYDYWGQGTLVTVSSGGGGSPAPAPEVQLVESGGGLVQPGGSLRLSCAASGRAHSDYAMAWFRQAPGQEREFVAGIGWSGGDTLYADSVRGRFTNSRDNSKNTLYLQMNSLRAEDTAVYYCAARQGQYIYSSMRSDSYDYWGQGTLVTVSS
binds: [1] | human serum albumin [2] | [3] | human serum albumin [4]

B4: TPP-3221 (bispecific antibody)
chain: EVQLVESGGGLVKPGGSLRLSCAASGRPVSNYAAAWFRQAPGKEREFVSAINWQKTATYADSVKGRFTISRDNAKNSLYLQMNSLRAEDTAVYYCAAVFRVVAPKTQYDYDYWGQGTLVTVSSGGGESGGGESEVQLVESGGGLVQPGGSLRLSCAASGRAHSDYAMAWFRQAPGQEREFVAGIGWSGGDTLYADSVRGRFTNSRDNSKNTLYLQMNSLRAEDTAVYYCAARQGQYIYSSMRSDSYDYWGQGTLVTVSS
binds: [1] | human serum albumin [2] | [3] | human serum albumin [4]

B5: TPP-3218 (bispecific antibody)
chain: EVQLVESGGGLVKPGGSLRLSCAASGRPVSNYAAAWFRQAPGKEREFVSAINWQKTATYADSVKGRFTISRDNAKNSLYLQMNSLRAEDTAVYYCAAVFRVVAPKTQYDYDYWGQGTLVTVSSPAPAPGGGGSEVQLVESGGGLVQPGGSLRLSCAASGRAHSDYAMAWFRQAPGQEREFVAGIGWSGGDTLYADSVRGRFTNSRDNSKNTLYLQMNSLRAEDTAVYYCAARQGQYIYSSMRSDSYDYWGQGTLVTVSS
binds: [1] | human serum albumin [2] | [3] | human serum albumin [4]

B6: TPP-3222 (bispecific antibody)
chain: EVQLVESGGGLVKPGGSLRLSCAASGRPVSNYAAAWFRQAPGKEREFVSAINWQKTATYADSVKGRFTISRDNAKNSLYLQMNSLRAEDTAVYYCAAVFRVVAPKTQYDYDYWGQGTLVTVSSGGGGSGGGGSEVQLVESGGGLVQPGGSLRLSCAASGRAHSDYAMAWFRQAPGQEREFVAGIGWSGGDTLYADSVRGRFTNSRDNSKNTLYLQMNSLRAEDTAVYYCAARQGQYIYSSMRSDSYDYWGQGTLVTVSS
binds: [1] | human serum albumin [2] | [3] | human serum albumin [4]

B7: TPP-3220 (bispecific antibody)
chain: EVQLVESGGGLVKPGGSLRLSCAASGRPVSNYAAAWFRQAPGKEREFVSAINWQKTATYADSVKGRFTISRDNAKNSLYLQMNSLRAEDTAVYYCAAVFRVVAPKTQYDYDYWGQGTLVTVSSGGGDSGGGDSEVQLVESGGGLVQPGGSLRLSCAASGRAHSDYAMAWFRQAPGQEREFVAGIGWSGGDTLYADSVRGRFTNSRDNSKNTLYLQMNSLRAEDTAVYYCAARQGQYIYSSMRSDSYDYWGQGTLVTVSS
binds: [1] | human serum albumin [2] | [3] | human serum albumin [4]

B8: TPP-3219 (bispecific antibody)
chain: EVQLVESGGGLVKPGGSLRLSCAASGRPVSNYAAAWFRQAPGKEREFVSAINWQKTATYADSVKGRFTISRDNAKNSLYLQMNSLRAEDTAVYYCAAVFRVVAPKTQYDYDYWGQGTLVTVSSGSTSGKSSEGKGEVQLVESGGGLVQPGGSLRLSCAASGRAHSDYAMAWFRQAPGQEREFVAGIGWSGGDTLYADSVRGRFTNSRDNSKNTLYLQMNSLRAEDTAVYYCAARQGQYIYSSMRSDSYDYWGQGTLVTVSS
binds: [1] | human serum albumin [2] | [3] | human serum albumin [4]

B9: LCP0150 (VHH, not shown: small tags and cut ends)
VHH: EVQLVESGGGLVQAGGSLRLSCVASGSGFGILDMGWYRQAPGSRRELVGYVTRDGTTNYGNSVKGRSIISEDITKNTVILQMNSLKPEDTAVYFCTAGLTNQPRAWGQGTQVTVSS
binds: [5] | [6]

B10: LCP0153 (VHH, not shown: small tags and cut ends)
VHH: EVQLVESGGGLVQAGGSLTLSCVASGRTFSNYRMGWFRQAPGKEREFVGTIYWSTGRSYYGDSVKGRFIISGDNAKNTIHLQMNSLKPGDTGVYYCASGPEMSAFDSWGQGTQVTVSS
binds: [5] | [6]

B11: LCP0295 (VHH, not shown: small tags and cut ends)
VHH: EVQLVESGGGLVQAGGSLRLSCAVSGRSISTYVAGWFRQGPGKEREFVALISRGGGDIQYSDSVKGRFTISRDNAKNAVYLQMNSLKPADTAVYYCSLDASFGSRLVSRWDYWGQGTQVTVSS
binds: [5] | [6]

B12: LCP0155 (VHH, not shown: small tags and cut ends)
VHH: EVQLVESGGGLVQAGGSLRLSCAASGVTFSNYGMAWFRQAPEKEREFVARISSNGRRTEYADGVSGRFTISRDNAKNTVYLQMNGLKPEDTAVYYCARAAGPSGFHEQSIYDDWGQGTQVTVSS
binds: [5] | [6]

B13: LCP0154 (VHH, not shown: small tags and cut ends)
VHH: EVQLVESGGGLVQPGGSLRLSCAASGFTLDDYAIGWFRQAPGKEREGVSCISSSDGSTYYGDSVKGRFTISRDNAKNTMYLQMNSLKPEDTAVYYCATGTPLSSYYGSCLDYDMAYWGQGTQVTVSS
binds: [5] | [6]

B14: LCP0147 (VHH, not shown: small tags and cut ends)
VHH: EVQLVESGGGLVQAGGSLRLSCAASGRTFSSSNMGWFRQAPGEEREFVTAIDWSGGRTYYADSVKGRFTISRDNAKNTVYLQMDSLKPEDTAVYYCAAQGSGLDWGYPWTYDYWGQGTQVTVSS
binds: [5] | [6]

B15: TPP-3213 (bispecific antibody)
chain: EVQLVESGGGLVKPGGSLRLSCAASGRPVSNYAAAWFRQAPGKEREFVSAINWQKTATYADSVKGRFTISRDNAKNSLYLQMNSLRAEDTAVYYCAAVFRVVAPKTQYDYDYWGQGTLVTVSSEVQLVESGGGLVQPGGSLRLSCAASGRAHSDYAMAWFRQAPGQEREFVAGIGWSGGDTLYADSVRGRFTNSRDNSKNTLYLQMNSLRAEDTAVYYCAARQGQYIYSSMRSDSYDYWGQGTLVTVSS
binds: [1] | human serum albumin [2] | [3] | human serum albumin [4]

B16: TPP-3215 (bispecific antibody)
chain: EVQLVESGGGLVKPGGSLRLSCAASGRPVSNYAAAWFRQAPGKEREFVSAINWQKTATYADSVKGRFTISRDNAKNSLYLQMNSLRAEDTAVYYCAAVFRVVAPKTQYDYDYWGQGTLVTVSSEAAAKEAAAKEAAAKEVQLVESGGGLVQPGGSLRLSCAASGRAHSDYAMAWFRQAPGQEREFVAGIGWSGGDTLYADSVRGRFTNSRDNSKNTLYLQMNSLRAEDTAVYYCAARQGQYIYSSMRSDSYDYWGQGTLVTVSS
binds: [1] | human serum albumin [2] | [3] | human serum albumin [4]

B17: LCP0151 (VHH, not shown: small tags and cut ends)
VHH: EVQLVESGGGLVQPGGSLRLSCAASGSVSSINVMGWYRQTPGKQRELVAAINRGGSTNVADSVKGRFTISRDNAKNTVYLQMNSLKPEDTAVYYCNAEPYGLDWRYDYWGQGTQVTVSS
binds: [5] | [6]

B18: LCP0297 (VHH, not shown: small tags and cut ends)
VHH: EVQLVESGGGLVQAGGSLRLSCAGSGFTSDDYAIAWFRQAPGKEREGVSCIGSGDGTTYYADSVKGRFIISSENAKKTVYLQMNSLKPEDTGIYYCAADLYPPADYALDHTWYDYWGQGTQVTVSS
binds: [5] | [6]
